According to the supplement of paper PMC12067093, “Discovery and optimisation of a covalent ligand for TRIM25 and its application to targeted protein ubiquitination” (Chemical Science, 2025):
Some of the results follow.

Chains of the proteins cited; added tags and fusions are not shown. Lines headed by an entry give the natural chain unless they say otherwise; changes in a name come on top.
UniProt Q12768: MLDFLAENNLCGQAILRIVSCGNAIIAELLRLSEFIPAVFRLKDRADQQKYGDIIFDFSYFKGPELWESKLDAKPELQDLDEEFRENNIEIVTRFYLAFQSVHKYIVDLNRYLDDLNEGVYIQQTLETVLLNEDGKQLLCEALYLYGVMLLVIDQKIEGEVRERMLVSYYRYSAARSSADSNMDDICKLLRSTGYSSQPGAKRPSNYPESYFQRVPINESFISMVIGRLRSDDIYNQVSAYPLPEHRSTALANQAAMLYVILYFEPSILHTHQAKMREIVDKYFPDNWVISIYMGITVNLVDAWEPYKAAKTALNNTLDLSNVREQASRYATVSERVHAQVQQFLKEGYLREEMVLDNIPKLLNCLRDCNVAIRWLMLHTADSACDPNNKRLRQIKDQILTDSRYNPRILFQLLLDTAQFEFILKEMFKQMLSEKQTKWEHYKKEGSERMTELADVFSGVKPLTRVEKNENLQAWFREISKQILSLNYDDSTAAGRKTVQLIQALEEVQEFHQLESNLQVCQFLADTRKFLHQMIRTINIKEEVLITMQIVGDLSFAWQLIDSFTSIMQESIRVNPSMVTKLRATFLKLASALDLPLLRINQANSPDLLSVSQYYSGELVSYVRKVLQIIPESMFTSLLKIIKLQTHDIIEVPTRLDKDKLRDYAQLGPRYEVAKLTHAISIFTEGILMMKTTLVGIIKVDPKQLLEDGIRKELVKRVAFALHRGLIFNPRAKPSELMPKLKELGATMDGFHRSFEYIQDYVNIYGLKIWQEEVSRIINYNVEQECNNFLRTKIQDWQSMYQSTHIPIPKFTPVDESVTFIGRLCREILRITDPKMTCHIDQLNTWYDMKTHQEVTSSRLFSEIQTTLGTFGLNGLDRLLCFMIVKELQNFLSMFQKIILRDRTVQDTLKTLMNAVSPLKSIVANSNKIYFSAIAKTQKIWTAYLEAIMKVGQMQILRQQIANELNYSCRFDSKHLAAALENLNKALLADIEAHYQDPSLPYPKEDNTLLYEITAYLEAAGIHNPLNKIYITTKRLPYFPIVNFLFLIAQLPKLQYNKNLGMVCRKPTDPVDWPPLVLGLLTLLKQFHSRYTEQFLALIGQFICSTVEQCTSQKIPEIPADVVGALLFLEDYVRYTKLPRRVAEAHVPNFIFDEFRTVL
UniProt Q9H1Z4: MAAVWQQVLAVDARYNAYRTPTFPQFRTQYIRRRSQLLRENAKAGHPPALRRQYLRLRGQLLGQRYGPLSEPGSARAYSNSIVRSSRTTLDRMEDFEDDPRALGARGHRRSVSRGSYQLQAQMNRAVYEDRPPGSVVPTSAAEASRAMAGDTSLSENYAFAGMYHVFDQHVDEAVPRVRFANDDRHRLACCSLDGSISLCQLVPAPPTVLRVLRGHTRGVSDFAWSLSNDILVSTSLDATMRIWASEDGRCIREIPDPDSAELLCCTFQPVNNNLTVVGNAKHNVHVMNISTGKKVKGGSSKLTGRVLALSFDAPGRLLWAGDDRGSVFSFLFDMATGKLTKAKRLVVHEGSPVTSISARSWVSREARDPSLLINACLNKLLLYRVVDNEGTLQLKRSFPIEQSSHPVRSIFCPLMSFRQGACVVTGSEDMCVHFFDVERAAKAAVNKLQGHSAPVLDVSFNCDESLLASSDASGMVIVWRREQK
UniProt Q8NI36: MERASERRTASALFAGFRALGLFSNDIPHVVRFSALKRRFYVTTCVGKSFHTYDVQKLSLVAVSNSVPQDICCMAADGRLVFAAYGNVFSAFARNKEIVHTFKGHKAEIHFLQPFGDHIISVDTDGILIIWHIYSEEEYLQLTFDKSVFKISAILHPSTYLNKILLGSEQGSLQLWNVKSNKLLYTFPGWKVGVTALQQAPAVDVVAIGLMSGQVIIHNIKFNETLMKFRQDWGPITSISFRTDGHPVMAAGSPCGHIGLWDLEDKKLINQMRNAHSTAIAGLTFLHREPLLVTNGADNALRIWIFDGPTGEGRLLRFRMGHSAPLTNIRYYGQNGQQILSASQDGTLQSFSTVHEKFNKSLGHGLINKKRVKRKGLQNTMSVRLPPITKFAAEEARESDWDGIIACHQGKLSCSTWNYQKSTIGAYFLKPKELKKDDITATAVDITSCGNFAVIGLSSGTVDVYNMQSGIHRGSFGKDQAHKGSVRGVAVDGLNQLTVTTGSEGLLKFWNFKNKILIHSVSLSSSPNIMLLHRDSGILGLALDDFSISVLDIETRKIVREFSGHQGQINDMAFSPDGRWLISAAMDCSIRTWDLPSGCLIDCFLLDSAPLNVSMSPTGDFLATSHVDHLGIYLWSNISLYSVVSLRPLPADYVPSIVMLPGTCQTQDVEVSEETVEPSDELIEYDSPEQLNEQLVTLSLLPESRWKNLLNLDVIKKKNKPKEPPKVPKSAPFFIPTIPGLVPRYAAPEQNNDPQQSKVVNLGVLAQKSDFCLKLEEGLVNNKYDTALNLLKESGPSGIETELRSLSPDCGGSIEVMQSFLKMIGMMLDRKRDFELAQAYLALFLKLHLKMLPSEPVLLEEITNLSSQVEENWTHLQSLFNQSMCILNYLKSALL
UniProt Q9UNX4: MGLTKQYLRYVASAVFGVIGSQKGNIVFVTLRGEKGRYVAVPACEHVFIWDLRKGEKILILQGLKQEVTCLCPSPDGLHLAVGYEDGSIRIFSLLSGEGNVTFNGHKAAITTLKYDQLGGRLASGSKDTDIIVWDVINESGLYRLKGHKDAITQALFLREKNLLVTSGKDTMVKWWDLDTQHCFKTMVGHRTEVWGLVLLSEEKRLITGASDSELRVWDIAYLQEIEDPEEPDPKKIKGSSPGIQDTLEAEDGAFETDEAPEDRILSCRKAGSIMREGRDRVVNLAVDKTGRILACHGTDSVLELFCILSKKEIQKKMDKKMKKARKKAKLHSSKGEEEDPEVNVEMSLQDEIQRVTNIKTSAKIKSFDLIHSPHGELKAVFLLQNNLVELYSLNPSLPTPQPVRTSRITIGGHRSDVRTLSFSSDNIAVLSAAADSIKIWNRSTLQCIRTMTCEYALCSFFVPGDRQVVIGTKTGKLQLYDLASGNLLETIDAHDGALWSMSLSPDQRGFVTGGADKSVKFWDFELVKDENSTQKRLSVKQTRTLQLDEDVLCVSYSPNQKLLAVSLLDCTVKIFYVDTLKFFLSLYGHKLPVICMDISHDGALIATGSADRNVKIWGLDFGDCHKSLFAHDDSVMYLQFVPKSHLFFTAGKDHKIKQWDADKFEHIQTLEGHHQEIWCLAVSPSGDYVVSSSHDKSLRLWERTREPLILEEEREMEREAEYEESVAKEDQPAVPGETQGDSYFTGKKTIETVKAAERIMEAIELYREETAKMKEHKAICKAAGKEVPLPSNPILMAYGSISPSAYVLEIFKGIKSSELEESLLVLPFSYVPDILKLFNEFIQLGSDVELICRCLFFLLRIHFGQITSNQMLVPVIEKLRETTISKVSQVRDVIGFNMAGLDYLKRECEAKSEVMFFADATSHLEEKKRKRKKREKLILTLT
UniProt O95785: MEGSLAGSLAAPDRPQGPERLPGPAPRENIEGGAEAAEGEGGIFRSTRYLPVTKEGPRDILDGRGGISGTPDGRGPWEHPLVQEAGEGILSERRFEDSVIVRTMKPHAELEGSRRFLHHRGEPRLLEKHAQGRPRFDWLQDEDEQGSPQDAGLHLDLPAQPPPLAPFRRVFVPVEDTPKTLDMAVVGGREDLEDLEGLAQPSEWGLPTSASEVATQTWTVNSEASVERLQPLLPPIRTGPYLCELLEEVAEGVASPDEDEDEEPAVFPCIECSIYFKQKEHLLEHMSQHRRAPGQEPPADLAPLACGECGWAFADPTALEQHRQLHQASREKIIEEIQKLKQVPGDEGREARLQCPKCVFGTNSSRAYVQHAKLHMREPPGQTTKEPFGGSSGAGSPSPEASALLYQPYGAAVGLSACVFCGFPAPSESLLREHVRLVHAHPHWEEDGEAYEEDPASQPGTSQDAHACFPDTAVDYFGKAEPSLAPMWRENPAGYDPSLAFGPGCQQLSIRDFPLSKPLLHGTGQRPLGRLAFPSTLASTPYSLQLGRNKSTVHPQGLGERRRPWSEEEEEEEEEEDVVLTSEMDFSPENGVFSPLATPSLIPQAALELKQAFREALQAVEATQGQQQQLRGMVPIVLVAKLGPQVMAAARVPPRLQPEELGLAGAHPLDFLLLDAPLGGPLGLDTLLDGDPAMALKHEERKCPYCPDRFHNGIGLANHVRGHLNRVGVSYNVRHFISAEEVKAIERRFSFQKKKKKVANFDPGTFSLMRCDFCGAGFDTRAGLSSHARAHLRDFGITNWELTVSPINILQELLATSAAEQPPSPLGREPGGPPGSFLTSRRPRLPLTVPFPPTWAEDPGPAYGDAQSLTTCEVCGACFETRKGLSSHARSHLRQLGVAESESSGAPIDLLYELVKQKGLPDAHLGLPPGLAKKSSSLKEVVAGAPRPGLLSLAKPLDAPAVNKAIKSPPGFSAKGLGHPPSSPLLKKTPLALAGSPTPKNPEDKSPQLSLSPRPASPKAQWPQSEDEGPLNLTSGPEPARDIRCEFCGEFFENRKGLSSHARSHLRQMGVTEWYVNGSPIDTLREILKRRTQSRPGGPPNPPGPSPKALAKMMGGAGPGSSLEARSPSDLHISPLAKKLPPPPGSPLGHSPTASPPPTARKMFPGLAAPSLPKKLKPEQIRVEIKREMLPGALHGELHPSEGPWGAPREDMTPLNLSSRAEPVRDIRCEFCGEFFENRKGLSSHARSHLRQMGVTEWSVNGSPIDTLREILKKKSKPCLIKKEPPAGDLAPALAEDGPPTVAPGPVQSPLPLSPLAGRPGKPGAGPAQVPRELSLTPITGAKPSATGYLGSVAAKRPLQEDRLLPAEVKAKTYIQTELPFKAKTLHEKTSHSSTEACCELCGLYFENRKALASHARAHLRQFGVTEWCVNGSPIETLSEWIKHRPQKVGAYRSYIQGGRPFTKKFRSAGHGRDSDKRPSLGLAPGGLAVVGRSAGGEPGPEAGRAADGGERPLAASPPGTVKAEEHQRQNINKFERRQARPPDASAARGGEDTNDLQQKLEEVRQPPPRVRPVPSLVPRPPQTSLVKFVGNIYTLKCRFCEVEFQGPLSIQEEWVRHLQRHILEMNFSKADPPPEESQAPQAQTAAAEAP
UniProt Q14191, whole entry, looked up: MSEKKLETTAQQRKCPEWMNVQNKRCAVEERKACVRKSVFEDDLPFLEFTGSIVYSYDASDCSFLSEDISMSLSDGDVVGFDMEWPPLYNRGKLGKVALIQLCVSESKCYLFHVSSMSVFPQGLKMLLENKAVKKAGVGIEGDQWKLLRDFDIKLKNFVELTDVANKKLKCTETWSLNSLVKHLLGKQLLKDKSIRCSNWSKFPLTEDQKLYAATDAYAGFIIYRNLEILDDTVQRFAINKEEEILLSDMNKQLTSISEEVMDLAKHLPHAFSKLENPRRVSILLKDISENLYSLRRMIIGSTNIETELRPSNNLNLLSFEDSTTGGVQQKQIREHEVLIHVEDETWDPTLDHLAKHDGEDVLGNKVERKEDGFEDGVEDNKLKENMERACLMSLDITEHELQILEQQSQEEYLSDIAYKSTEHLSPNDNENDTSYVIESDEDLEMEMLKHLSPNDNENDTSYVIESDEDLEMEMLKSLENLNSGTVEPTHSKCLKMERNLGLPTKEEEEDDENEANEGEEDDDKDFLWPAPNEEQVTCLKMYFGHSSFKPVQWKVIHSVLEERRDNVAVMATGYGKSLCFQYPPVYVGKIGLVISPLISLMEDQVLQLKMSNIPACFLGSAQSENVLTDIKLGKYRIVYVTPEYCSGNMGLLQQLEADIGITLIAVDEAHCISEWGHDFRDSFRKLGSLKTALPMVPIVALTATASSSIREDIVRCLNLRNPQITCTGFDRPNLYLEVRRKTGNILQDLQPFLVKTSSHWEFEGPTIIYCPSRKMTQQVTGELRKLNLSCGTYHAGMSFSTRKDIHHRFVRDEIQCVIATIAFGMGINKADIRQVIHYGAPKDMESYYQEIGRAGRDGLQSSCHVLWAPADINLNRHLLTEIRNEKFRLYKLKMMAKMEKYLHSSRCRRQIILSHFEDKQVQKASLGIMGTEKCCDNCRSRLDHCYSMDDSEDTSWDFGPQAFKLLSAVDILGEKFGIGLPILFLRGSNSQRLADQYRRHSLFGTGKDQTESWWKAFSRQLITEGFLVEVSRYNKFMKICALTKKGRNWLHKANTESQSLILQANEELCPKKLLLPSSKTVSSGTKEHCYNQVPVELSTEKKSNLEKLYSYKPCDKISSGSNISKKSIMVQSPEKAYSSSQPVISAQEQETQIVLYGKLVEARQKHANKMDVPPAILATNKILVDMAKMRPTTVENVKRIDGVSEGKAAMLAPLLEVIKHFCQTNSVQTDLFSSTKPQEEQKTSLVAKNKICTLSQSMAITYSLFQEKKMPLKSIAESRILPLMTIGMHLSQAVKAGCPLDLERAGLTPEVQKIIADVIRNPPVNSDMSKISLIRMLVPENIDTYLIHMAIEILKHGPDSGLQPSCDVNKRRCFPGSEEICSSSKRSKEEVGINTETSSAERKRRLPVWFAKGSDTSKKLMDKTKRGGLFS

Compound: CC1Cc2ccccc2N1C(=O)C1CCCN(C1)C(=O)CCl (mixture of isomers) [TRIM25 ligand 11 (diastereomer mixture)]
Assay: probe-labelled cysteine peptide fold change vs DMSO (competition) (log2 fold change); higher = less target engagement (more negative = stronger competition)
Conditions: THP-1, incubation time: 4 h
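Further: competitive chemoproteomic profiling in live THP-1 cells with an iodoacetamide desthiobiotin (IA-DTB) probe, comparing probe-labelled peptide intensities in compound-treated cells against DMSO-treated controls.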

Row | Target | probe-labelled cysteine peptide fold change (10 µM) | probe-labelled cysteine peptide fold change (50 µM)
1 | WASHC5_Q12768_838_MTCHIDQLNTWYDMK (UniProt Q12768) | 0.0216 | -0.00847
2 | WDR76_Q9H967_81_NSNNEVACK (UniProt Q9H967) | -0.0543 | -0.257
3 | WDR13_Q9H1Z4_423_QGACVVTGSEDMCVHFFDVER (UniProt Q9H1Z4) | 0.273 | 0.1
4 | WDR91_A4D1P6_351_ELFSTTTSQCAEK (UniProt A4D1P6) | 0.0204 | -0.136
5 | WDR43_Q15061_140_VNCIQWHQDSGCLYSCSDDK (UniProt Q15061) | 0.0884 | 0.0864
6 | WDR33_Q9C0J8_220_FATCSDDGTVR (UniProt Q9C0J8) | 0.00338 | -0.0563
7 | WDR82_Q6UXN9_287_HTGPITCLQFNPK (UniProt Q6UXN9) | -0.0421 | -0.119
8 | WDFY4_Q6ZS81_582_IFLDDECYR (UniProt Q6ZS81) | 0.298 | 0.0279
9 | WDR92_Q96MX6_337+339_GLCVCSSFDQTVR (UniProt Q96MX6) | -0.173 | 0.0878
10 | WASHC5_Q12768_969_QQIANELNYSCR (UniProt Q12768) | 0.124 | 0.12
11 | WBP4_O75554_18_CWIADNRPSVEFHER (UniProt O75554) | -0.0412 | -0.13
12 | WDR36_Q8NI36_311_TDGHPVMAAGSPCGHIGLWDLEDK (UniProt Q8NI36) | 0.0999 | -0.103
13 | WDR43_Q15061_131_VNCIQWHQDSGCLYSCSDDK (UniProt Q15061) | 0.0562 | 0.112
14 | WDFY4_Q6ZS81_2226_TEDFVSCIENYRR (UniProt Q6ZS81) | 0.00908 | -0.0125
15 | WDFY3_Q8IZQ1_896_NQQVMCEAGLHAR (UniProt Q8IZQ1) | 0.425 | 0.194
16 | WDR55_Q9H6Y2_5_TCEERPAEDGSDEEDPDSMEAPTR (UniProt Q9H6Y2) | -0.76 | -0.645
17 | WDR7_Q9Y4E6_69_ALLFGHTASITCLSK (UniProt Q9Y4E6) | -0.0603 | 0.144
18 | XIAP_P98170_474_QCAEAVDK (UniProt P98170) | -0.0754 | 0.139
19 | XPA_P23025_126+129_EFMDSYLMNHFDLPTCDNCR (UniProt P23025) | 0.169 | 0.182
20 | WDR76_Q9H967_81_NSNNEVACKK (UniProt Q9H967) | -0.37 | -0.427
21 | XIAP_P98170_471_NIAIVFVPCGHLVTCK (UniProt P98170) | -0.0244 | 0.0441

Row | Target | probe-labelled cysteine peptide fold change (10 µM) | probe-labelled cysteine peptide fold change (50 µM)
22 | WDR3_Q9UNX4_296_ILACHGTDSVLELFCILSK (UniProt Q9UNX4) | 0.00194 | -0.13
23 | WDR62_O43379_256_SGILGELHNNIFCGVACGR (UniProt O43379) | 0.132 | 0.0882
24 | WDR26_Q9H7D7_316_CLYHNTK (UniProt Q9H7D7) | 0.06 | 0.0415
25 | WDR47_O94967_672_GSIYCVAWSPCGQLLATGSNDK (UniProt O94967) | -0.126 | -0.567
26 | XIAP_P98170_12_TCVPADINKEEEFVEEFNR (UniProt P98170) | -0.00651 | -0.22
27 | WDYHV1_Q96HA8_165_DSSGNWREPPPPYPCIETGDSK (UniProt Q96HA8) | -0.253 | -0.191
28 | WARS_P23381_305+309_TDIQCLIPCAIDQDPYFR (UniProt P23381) | -0.101 | -0.151
29 | WASHC5_Q12768_369_DCNVAIR (UniProt Q12768) | 0.0168 | 0.165
30 | XIAP_P98170_351_GQEYINNIHLTHSLEECLVR (UniProt P98170) | 0.0904 | -0.106
31 | WDR1_O75083_438_CFSIDNPGYEPEVVAVHPGGDTVAIGGVDGNVR (UniProt O75083) | -0.0798 | -0.203
32 | WDR13_Q9H1Z4_432_QGACVVTGSEDMCVHFFDVER (UniProt Q9H1Z4) | -0.0252 | -0.0484
33 | WDR76_Q9H967_562_QEDCVIVGSMAHPR (UniProt Q9H967) | 0.303 | 0.28
34 | WASHC5_Q12768_385_WLMLHTADSACDPNNKR (UniProt Q12768) | -0.125 | -0.131
35 | WASHC4_Q2M389_1031_NFYIIVPPLTLNFVEHSISCK (UniProt Q2M389) | 0.0838 | -0.00493
36 | WARS_P23381_394_QFGGNCDVDVSFMYLTFFLEDDDKLEQIRK (UniProt P23381) | -0.0941 | 0.0643
37 | WDR37_Q9Y2I8_330_TANLYDVETSELVHSLTGHDQELTHCCTHPTQR (UniProt Q9Y2I8) | 0.247 | 0.231
38 | WDFY4_Q6ZS81_2460_STDHYSCQCHSYADMR (UniProt Q6ZS81) | 0.377 | -0.0469
39 | WDR47_O94967_695_VLPFNAETCNATGPDLEFSMHDGTIR (UniProt O94967) | 0.0901 | 0.123
40 | XPC_Q01831_558_WVCVDCVHGVVGQPLTCYK (UniProt Q01831) | -0.061 | 0.0592
41 | WDR6_Q9NNW5_577_QGVTSVTCHGGYVYTTGR (UniProt Q9NNW5) | -0.0117 | -0.0183
42 | WDR75_Q8IWA0_444+451_INMPHEDCITALCFCNAEK (UniProt Q8IWA0) | -0.0385 | 0.021

Row | Target | probe-labelled cysteine peptide fold change (10 µM) | probe-labelled cysteine peptide fold change (50 µM)
43 | WDR44_Q5JSH3_147_CFPSDETCEKPVDETTK (UniProt Q5JSH3) | -0.175 | -0.125
44 | WDR81_Q562E7_130_LSYPLGGGLPFEDGSCGPETLTR (UniProt Q562E7) | 0.039 | -0.0489
45 | WDR92_Q96MX6_70_CGTFGATSLQQR (UniProt Q96MX6) | -0.116 | -0.0661
46 | WDR92_Q96MX6_24_GFNYTVFDCK (UniProt Q96MX6) | 0.0338 | 0.131
47 | WDR62_O43379_376_KAEAVYPDTVALTFDPIHQWLSCVYK (UniProt O43379) | 0.151 | 0.00351
48 | WDR74_Q6RFH5_316_SQLNCLLLSGR (UniProt Q6RFH5) | -0.0123 | -0.214
49 | WIZ_O95785_1048_CEFCGEFFENR (UniProt O95785) | 0.0722 | 0.417
50 | WDFY4_Q6ZS81_878_QVMCEAGLLGTLMASCHR (UniProt Q6ZS81) | 0.0899 | -0.0334
51 | WDR34_Q96EX3_529_EAEDLDCLAAEVAA (UniProt Q96EX3) | 0.164 | -0.202
52 | XAB2_Q9HCS7_695_AIYSFCSQICDPR (UniProt Q9HCS7) | 0.0334 | 0.197
53 | WDR76_Q9H967_214_RENGIGCR (UniProt Q9H967) | -0.0382 | -0.13
54 | WDR11_Q9BZH6_107_IIVWDVAAGVAQCEIQEHAK (UniProt Q9BZH6) | 0.176 | 0.0832
55 | WWOX_Q9NZC7_155_SFALHGAHVILACR (UniProt Q9NZC7) | 0.0852 | 0.147
56 | WDR36_Q8NI36_311_TDGHPVMAAGSPCGHIGLWDLEDKK (UniProt Q8NI36) | 0.0484 | -0.132
57 | WDYHV1_Q96HA8_50_NHDQYPLEECYAVFISNER (UniProt Q96HA8) | 0.545 | 0.0928
58 | WDR45B_Q5MNZ6_63_CNYLALVGGGK (UniProt Q5MNZ6) | 0.0226 | -0.0611
59 | WRAP53_Q9BUR4_512_HVHLECR (UniProt Q9BUR4) | 0.0398 | 0.11
60 | WDR1_O75083_194_FVNCVR (UniProt O75083) | 0.18 | -0.251
61 | WDR92_Q96MX6_184_VVCAGYDNGDIK (UniProt Q96MX6) | 0.0641 | 0.172
62 | WWP2_O00308_838_SHTCFNR (UniProt O00308) | 0.0682 | 0.0454
63 | WDR3_Q9UNX4_296+307_ILACHGTDSVLELFCILSK (UniProt Q9UNX4) | -0.0433 | -0.38

Row | Target | probe-labelled cysteine peptide fold change (10 µM) | probe-labelled cysteine peptide fold change (50 µM)
64 | WDR3_Q9UNX4_70+72_QEVTCLCPSPDGLHLAVGYEDGSIR (UniProt Q9UNX4) | 0.208 | 0.0368
65 | WDR61_Q9GZS3_266_TCVHTFFDHQDQVWGVK (UniProt Q9GZS3) | -0.00305 | 0.0473
66 | WDR75_Q8IWA0_306_LGATIEHISVSPAGDLFCTSHSDNK (UniProt Q8IWA0) | 0.114 | 0.0175
67 | WDHD1_O75717_781_CVELADLMTQNAVNLAIK (UniProt O75717) | 0.0994 | 0.0632
68 | WDFY4_Q6ZS81_545_VSTPGVQDPERELTCVMLR (UniProt Q6ZS81) | -0.026 | 0.167
69 | WASF2_Q9Y6W5_27_SELECVTNITLANVIR (UniProt Q9Y6W5) | -0.0924 | -0.21
70 | WDR6_Q9NNW5_688_ALGGCTRPHVILR (UniProt Q9NNW5) | 0.0217 | 0.052
71 | WDFY4_Q6ZS81_858_LYHEDHPQLSEEIQCSLASHIQSLVK (UniProt Q6ZS81) | 0.002 | -0.267
72 | WRN_Q14191_1115_LYSYKPCDK (UniProt Q14191) | 0.0775 | -0.0533
73 | WHAMM_Q8TF30_435_EKQDEVVYYDPCENPEELK (UniProt Q8TF30) | 0.196 | 0.0782
74 | WDR55_Q9H6Y2_191_LLLTASGDGCLGIFNIK (UniProt Q9H6Y2) | -0.00698 | 0.0857
75 | WDR3_Q9UNX4_307_ILACHGTDSVLELFCILSK (UniProt Q9UNX4) | -0.0274 | -0.132
76 | WDFY1_Q8IWB7_290_CEQPFFWNIK (UniProt Q8IWB7) | 0.022 | -0.00435
77 | WRN_Q14191_1367_HGPDSGLQPSCDVNK (UniProt Q14191) | 0.14 | -0.042
78 | WIZ_O95785_1399_TSHSSTEACCELCGLYFENR (UniProt O95785) | 0.146 | 0.17
79 | WDR60_Q8WVS4_1047_WAAPEVDECNR (UniProt Q8WVS4) | -0.147 | -0.141
80 | WDR3_Q9UNX4_70_QEVTCLCPSPDGLHLAVGYEDGSIR (UniProt Q9UNX4) | 0.137 | 0.0953
81 | XIAP_P98170_227_HFPNCFFVLGR (UniProt P98170) | -0.11 | -0.00778
82 | WDR1_O75083_325_SIQCLTVHK (UniProt O75083) | 0.0169 | 0.00756
83 | WDR70_Q9NW82_302_GEFMTCSNDATVR (UniProt Q9NW82) | 0.061 | -0.106
